PubChem BioAssay AID1508597 | Cure First – 2020
Shown is a random part of the about 2,100 reagents, under one of the conditions tested. 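Calls flag viability under 80% in either arm, not effects specific to rucaparib; the reference for percent is not stated.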 Some reagents were tested in more than one well and are listed for each. No sequences are given here. Not stated in the record: the 100% reference.

Purpose: 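Survival screen with siRNA in ovarian cancer cells derived from patients, with or without rucaparib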 (primary screen)
System: human ovarian carcinoma lines grown from tumours: OCI-P5x (papillary serous) and OCI-C5x (clear cell)
Knock-down reagent: siRNA pool against human genes, 1.25 pmol siRNA per well
Time to read-out: 72 h or 96 h, depending on the cell culture
Treatment: rucaparib 20 µM (about IC30) or vehicle, present until read-out
Rucaparib or vehicle: Rucaparib
Cell line: OCI-C5x (clear cell)
Read-out: 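Luminescent ATP-based viability assay read 72 or 96 h after transfection, depending on culture, given as normalised percent viability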
Reading the numbers: viability, normalised: higher = more viable cells remaining
Hit rule: 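Active when normalised viability falls below 80 percent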
Calls: active = viability under 80%; inactive = viability 80% or more

gene | technical replicate | viability, normalised (%) | Outcome
ATOH1 (GeneID 474) | 1 | 37 | active
ATOH1 (GeneID 474) | 2 | 48.6 | active
ATOH1 (GeneID 474) | 3 | 55.5 | active
POLD1 (GeneID 5424) | 1 | 44.3 | active
POLD1 (GeneID 5424) | 2 | 54.7 | active
POLD1 (GeneID 5424) | 3 | 49.8 | active
TONSL (GeneID 4796) | 1 | 41.7 | active
TONSL (GeneID 4796) | 2 | 56.7 | active
TONSL (GeneID 4796) | 3 | 48.4 | active
NIPBL (GeneID 25836) | 1 | 44.9 | active
NIPBL (GeneID 25836) | 2 | 52.1 | active
NIPBL (GeneID 25836) | 3 | 27.2 | active
SQLE (GeneID 6713) | 1 | 72.7 | active
SQLE (GeneID 6713) | 2 | 61.9 | active
SQLE (GeneID 6713) | 3 | 73 | active
MLLT10 (GeneID 8028) | 1 | 44.3 | active
MLLT10 (GeneID 8028) | 2 | 36.2 | active
MLLT10 (GeneID 8028) | 3 | 42.9 | active
DYRK4 (GeneID 8798) | 1 | 63.5 | active
DYRK4 (GeneID 8798) | 2 | 62.6 | active
DYRK4 (GeneID 8798) | 3 | 54.8 | active

Quoted from above (4 entries):
gene | technical replicate | viability, normalised (%) | Outcome
TONSL (GeneID 4796) | 1 | 41.7 | active
TONSL (GeneID 4796) | 2 | 56.7 | active
TONSL (GeneID 4796) | 3 | 48.4 | active
NIPBL (GeneID 25836) | 1 | 44.9 | active

The list goes on:
gene | technical replicate | viability, normalised (%) | Outcome
BRPF1 (GeneID 7862) | 1 | 52.4 | active
BRPF1 (GeneID 7862) | 2 | 44.7 | active
BRPF1 (GeneID 7862) | 3 | 49.3 | active
XRCC4 (GeneID 7518) | 1 | 55.8 | active
XRCC4 (GeneID 7518) | 2 | 69.4 | active
XRCC4 (GeneID 7518) | 3 | 73.1 | active
BCL2L1 (GeneID 598) | 1 | 15.2 | active
BCL2L1 (GeneID 598) | 1 | 20 | active
BCL2L1 (GeneID 598) | 2 | 13.8 | active
BCL2L1 (GeneID 598) | 2 | 20.5 | active
BCL2L1 (GeneID 598) | 3 | 19.3 | active
BCL2L1 (GeneID 598) | 3 | 13 | active
DLG4 (GeneID 1742) | 1 | 62.3 | active
DLG4 (GeneID 1742) | 1 | 45.2 | active
DLG4 (GeneID 1742) | 2 | 44.2 | active
DLG4 (GeneID 1742) | 2 | 61.2 | active
DLG4 (GeneID 1742) | 3 | 55 | active
DLG4 (GeneID 1742) | 3 | 49.5 | active
